Results are given in words; binding and its absence hold for the method and conditions named. Some entries that bind do so weakly or less than the wild type.
Assays:
[1] = target: GST-GRIP1, the three receptor interaction domains of mouse GRIP1 (Arg 625 - Lys 765) fused to glutathione-S-transferase (mouse) (UniProt Q61026); test: electrophoretic mobility shift, DR1 probe, LG268 0-1000 nM
[2] = target: GST-GRIP1, the three receptor interaction domains of mouse GRIP1 (Arg 625 - Lys 765) fused to glutathione-S-transferase (mouse) (UniProt Q61026); test: electrophoretic mobility shift, DR1 probe, LG268 (Figure 3 legend)

Protein sequences, listed by entry. Tags and fused reporters are not part of them. Residues count along the entry.
UniProt Q61026, residues 625-765: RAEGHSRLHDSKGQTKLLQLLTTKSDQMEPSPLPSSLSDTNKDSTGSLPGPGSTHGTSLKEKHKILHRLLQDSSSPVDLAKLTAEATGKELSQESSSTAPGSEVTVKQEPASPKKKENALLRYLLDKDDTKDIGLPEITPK

B1: human RXRα (9-cis retinoic acid receptor), full-length, wild type (receptor, UniProt P19793 1-462, looked up)
chain: MDTKHFLPLDFSTQVNSSLTSPTGRGSMAAPSLHPSLGPGIGSPGQLHSPISTLSSPINGMGPPFSVISSPMGPHSMSVPTTPTLGFSTGSPQLSSPMNPVSSSEDIKPPLGLNGVLKVPAHPSGNMASFTKHICAICGDRSSGKHYGVYSCEGCKGFFKRTVRKDLTYTCRDNKDCLIDKRQRNRCQYCRYQKCLAMGMKREAVQEERQRGKDRNENEVESTSSANEDMPVERILEAELAVEPKTETYVEANMGLNPSSPNDPVTNICQAADKQLFTLVEWAKRIPHFSELPLDDQVILLRAGWNELLIASFSHRSIAVKDGILLATGLHVHRNSAHSAGVGAIFDRVLTELVSKMRDMQMDKTELGCLRAIVLFNPDSKGLSNPAEVEALREKVYASLEAYCKHKYPEQPGRFAKLLLRLPALRSIGLKCLEHLFFFKLIGDTPIDTFLMEMLEAPHQMT
notes: mature; also called wild-type RXR
With B1 the binding [1] was “binds” and the binding [2] was “binds”.

From patent publication EP1165135B1 (City of Hope, dated 2004)
